The list shows a part of the results.
What was measured:
Test in all cases: log2 fold change, soluble protein after heating vs DMSO (PISA); higher = thermal stabilisation; K562 lysate, 10 uM; active = over 0.2 and 3.5 SD of the protein, either way, in both replicates (recomputed)
[1] = compound: C1=CC2=NC=CN=C2C=C1/C=C/3\C(=O)NC(=O)S3
Procedure, shortened: (§1)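 Log-two fold change in thermal stability relative to solvent controls is reported from duplicates. For each sample, crude K562 extract from dounce-homogenised pellets in PBS pH 7.4 with 1 mM MgCl2, at 1 mg/mL protein, was treated with 10 μM compound for 30 min. Aliquots heated for 3 min across 48°C-58°C were pooled, brought to 0.5% NP-40 at 4°C and cleared at 21,000xg for 90 min. The supernatant was quantified by TMTpro 16plex LC-MS/MS with channel sums equalised.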

Sequences of proteins named here, by UniProt entry; tags and fusion partners are left off. A change or cut given only in a name is not applied to a line headed by its entry.
UniProt Q96P50: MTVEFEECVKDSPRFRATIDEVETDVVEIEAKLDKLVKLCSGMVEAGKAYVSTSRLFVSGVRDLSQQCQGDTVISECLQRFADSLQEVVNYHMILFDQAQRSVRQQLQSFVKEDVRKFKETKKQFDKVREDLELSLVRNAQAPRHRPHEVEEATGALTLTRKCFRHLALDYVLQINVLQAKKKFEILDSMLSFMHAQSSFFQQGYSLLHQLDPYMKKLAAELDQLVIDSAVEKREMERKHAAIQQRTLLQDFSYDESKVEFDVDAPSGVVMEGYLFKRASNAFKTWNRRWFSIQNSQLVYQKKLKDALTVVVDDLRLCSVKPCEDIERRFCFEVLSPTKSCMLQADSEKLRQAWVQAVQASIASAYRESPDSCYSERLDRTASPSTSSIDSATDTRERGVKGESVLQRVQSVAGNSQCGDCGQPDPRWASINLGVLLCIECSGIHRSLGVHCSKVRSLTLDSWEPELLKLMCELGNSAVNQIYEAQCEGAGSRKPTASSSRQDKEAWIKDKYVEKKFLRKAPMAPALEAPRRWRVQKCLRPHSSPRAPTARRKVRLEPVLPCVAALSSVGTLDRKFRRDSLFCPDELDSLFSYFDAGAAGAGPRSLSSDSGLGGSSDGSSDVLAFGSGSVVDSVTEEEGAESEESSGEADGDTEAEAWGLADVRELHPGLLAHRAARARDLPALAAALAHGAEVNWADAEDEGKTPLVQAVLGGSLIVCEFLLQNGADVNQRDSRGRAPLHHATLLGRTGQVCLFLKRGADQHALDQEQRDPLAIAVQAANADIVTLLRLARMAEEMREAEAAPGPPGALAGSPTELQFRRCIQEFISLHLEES
UniProt Q6UXT9: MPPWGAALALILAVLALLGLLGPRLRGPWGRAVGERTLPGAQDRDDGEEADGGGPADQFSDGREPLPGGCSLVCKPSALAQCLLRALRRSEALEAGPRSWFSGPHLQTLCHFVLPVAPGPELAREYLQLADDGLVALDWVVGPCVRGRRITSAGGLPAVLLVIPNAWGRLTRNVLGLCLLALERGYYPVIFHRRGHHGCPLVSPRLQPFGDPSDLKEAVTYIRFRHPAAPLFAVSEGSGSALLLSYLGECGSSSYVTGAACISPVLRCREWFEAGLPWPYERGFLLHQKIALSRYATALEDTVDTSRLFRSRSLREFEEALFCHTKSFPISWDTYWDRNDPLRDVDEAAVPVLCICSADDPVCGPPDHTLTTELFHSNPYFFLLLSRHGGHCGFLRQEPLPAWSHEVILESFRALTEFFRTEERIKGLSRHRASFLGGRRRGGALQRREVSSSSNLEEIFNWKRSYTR
UniProt Q8TB40: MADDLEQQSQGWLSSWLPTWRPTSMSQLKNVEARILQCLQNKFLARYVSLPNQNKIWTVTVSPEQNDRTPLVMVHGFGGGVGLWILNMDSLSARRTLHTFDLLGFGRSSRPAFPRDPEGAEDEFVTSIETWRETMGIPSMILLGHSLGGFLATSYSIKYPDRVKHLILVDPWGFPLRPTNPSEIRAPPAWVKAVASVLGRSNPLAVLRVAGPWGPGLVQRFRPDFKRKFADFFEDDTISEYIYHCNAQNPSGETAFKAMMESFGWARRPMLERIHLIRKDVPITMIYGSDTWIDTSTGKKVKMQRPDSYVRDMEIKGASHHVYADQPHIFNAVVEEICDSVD
UniProt Q8WU67: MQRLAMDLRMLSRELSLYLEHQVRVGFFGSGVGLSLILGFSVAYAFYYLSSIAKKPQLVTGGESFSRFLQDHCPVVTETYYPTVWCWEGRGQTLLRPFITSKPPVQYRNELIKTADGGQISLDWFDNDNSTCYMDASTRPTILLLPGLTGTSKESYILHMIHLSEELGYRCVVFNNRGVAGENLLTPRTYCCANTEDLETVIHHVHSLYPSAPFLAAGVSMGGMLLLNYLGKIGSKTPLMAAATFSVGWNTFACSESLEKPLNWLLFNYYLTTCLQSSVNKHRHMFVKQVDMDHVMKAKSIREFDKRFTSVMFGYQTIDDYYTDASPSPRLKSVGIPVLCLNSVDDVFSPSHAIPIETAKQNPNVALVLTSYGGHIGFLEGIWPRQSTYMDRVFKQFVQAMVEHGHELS
UniProt Q8IZY2: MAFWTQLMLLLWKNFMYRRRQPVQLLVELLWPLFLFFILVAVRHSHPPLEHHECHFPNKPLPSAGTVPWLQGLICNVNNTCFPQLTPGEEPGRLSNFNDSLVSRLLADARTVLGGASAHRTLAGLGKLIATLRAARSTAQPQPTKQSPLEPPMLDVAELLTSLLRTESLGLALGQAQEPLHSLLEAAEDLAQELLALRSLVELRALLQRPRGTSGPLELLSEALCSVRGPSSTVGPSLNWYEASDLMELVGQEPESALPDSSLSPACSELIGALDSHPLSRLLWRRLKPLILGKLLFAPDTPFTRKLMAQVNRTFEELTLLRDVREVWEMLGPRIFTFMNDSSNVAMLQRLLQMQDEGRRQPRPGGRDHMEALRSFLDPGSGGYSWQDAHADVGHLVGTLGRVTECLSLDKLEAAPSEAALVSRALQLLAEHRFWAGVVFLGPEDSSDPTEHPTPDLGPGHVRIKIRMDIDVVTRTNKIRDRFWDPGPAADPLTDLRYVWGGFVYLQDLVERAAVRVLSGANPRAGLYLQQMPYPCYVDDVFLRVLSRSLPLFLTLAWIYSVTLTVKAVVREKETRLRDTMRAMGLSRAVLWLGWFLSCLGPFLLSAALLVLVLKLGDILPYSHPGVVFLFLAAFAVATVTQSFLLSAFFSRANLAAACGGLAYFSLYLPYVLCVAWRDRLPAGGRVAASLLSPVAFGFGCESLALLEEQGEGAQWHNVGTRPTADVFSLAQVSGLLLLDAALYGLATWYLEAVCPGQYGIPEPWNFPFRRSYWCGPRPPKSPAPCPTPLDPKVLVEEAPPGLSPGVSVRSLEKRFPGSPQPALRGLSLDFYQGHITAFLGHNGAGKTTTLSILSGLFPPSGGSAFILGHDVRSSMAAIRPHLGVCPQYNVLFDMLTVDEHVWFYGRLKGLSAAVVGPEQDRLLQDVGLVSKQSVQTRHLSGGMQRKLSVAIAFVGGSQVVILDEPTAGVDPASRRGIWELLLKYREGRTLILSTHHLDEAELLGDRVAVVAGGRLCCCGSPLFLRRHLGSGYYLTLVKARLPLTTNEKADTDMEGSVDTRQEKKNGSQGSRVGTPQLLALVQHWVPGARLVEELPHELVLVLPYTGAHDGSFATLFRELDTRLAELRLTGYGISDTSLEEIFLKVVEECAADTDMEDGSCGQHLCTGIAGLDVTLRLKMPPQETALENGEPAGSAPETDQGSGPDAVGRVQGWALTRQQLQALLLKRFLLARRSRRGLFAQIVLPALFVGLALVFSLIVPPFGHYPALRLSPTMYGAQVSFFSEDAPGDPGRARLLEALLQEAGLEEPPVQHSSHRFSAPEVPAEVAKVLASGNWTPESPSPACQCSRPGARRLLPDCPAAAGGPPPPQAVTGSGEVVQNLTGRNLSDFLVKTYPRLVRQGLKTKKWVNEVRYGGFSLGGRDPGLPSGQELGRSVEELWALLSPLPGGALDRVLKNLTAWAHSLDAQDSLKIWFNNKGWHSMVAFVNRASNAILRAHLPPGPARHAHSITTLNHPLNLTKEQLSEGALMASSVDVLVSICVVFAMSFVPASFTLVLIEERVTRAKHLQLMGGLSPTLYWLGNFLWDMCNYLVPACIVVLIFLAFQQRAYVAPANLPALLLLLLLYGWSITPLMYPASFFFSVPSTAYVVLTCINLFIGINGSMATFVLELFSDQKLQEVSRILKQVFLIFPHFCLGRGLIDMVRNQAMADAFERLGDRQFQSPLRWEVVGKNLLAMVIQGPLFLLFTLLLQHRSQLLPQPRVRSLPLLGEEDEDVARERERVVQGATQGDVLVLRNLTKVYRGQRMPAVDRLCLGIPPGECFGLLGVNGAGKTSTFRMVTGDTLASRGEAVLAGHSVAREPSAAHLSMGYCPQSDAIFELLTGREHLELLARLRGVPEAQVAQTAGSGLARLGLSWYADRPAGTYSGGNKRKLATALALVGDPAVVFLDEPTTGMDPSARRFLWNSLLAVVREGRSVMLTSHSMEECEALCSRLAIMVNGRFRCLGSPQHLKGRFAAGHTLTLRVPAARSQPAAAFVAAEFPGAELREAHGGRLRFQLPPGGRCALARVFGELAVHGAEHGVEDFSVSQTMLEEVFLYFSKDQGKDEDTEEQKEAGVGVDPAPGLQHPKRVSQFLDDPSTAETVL
UniProt Q96AP0: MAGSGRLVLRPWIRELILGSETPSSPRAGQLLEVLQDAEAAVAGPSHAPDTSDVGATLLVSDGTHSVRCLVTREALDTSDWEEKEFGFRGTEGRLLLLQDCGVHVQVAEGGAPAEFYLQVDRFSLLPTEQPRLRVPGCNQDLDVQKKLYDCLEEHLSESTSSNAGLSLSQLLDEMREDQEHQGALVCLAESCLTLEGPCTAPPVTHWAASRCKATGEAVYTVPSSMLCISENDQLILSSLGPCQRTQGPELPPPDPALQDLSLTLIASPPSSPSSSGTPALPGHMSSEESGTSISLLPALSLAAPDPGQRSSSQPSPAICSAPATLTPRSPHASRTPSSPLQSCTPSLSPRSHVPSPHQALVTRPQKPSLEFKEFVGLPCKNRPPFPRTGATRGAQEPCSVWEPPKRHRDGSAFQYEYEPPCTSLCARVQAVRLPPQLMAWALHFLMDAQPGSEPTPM
UniProt Q0P651: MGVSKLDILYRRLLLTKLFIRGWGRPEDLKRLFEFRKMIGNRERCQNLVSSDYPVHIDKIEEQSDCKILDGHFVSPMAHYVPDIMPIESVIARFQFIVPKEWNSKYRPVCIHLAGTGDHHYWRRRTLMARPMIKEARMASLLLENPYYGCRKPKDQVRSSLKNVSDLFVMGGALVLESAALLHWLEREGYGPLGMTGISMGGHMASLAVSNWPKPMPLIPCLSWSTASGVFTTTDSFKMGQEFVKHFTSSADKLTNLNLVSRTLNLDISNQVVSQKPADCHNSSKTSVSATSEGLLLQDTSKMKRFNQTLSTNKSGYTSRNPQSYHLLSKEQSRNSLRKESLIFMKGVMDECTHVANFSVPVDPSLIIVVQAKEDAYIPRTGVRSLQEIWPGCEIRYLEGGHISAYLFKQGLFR
UniProt Q5T3U5: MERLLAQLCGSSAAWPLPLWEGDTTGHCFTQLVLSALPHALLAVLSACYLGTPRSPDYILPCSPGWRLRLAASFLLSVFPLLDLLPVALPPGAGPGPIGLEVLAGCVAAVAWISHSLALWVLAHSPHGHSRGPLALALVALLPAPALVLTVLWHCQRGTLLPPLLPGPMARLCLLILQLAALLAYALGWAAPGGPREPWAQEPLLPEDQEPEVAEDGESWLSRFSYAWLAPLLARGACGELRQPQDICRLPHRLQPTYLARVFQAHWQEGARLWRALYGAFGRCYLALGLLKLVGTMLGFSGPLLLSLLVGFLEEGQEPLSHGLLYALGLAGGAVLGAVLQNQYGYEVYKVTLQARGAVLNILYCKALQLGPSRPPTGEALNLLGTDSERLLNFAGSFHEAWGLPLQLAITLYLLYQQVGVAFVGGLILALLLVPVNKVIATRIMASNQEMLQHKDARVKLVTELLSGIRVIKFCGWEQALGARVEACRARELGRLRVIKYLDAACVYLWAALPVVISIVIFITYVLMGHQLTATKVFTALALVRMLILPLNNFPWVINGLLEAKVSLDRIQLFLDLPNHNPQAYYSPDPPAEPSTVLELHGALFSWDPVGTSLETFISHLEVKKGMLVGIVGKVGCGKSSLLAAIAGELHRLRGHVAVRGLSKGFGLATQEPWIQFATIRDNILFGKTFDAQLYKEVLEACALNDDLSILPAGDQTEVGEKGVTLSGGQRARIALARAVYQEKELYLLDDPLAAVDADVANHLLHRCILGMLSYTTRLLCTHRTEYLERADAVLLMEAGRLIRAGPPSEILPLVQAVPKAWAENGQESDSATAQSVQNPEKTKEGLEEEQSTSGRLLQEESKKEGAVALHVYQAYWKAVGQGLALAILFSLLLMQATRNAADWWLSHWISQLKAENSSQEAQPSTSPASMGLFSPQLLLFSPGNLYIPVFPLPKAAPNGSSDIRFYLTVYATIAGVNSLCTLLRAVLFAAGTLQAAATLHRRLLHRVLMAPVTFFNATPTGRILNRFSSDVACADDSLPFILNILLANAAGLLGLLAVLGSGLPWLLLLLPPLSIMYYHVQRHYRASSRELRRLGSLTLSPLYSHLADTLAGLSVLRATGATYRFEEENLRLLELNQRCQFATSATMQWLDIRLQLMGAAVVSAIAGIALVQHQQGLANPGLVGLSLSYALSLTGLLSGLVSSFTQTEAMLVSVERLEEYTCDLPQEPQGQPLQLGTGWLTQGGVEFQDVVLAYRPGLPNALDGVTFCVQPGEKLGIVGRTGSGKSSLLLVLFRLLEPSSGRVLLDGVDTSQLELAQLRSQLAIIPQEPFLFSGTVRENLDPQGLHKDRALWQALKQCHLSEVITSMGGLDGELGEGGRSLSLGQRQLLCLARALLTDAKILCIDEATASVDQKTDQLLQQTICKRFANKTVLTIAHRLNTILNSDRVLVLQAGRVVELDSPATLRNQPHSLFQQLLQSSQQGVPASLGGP

[2] = compound: C1=CC=C(C=C1)C2=NC(=C(N2)C3=CC=NC=C3)C4=CC(=C(C=C4)Cl)O
Procedure, shortened: as §1

[3] = compound: C1CCN(C1)C(=O)NC2=CC=CC(=C2)NC3=NC=C(C(=N3)NCCC4=CN=CN4)Br
Procedure, shortened: as §1

[4] = compound: C1CN(CCC1(CC2=CC=C(C=C2)Cl)N)C3=NC=NC4=C3C=CN4
Procedure, shortened: as §1

IRAK-1-4 Inhibitor I = compound: C1COCCN1CCN2C3=CC=CC=C3N=C2NC(=O)C4=CC(=CC=C4)[N+](=O)[O-] [IRAK-1-4 Inhibitor I]
Procedure, shortened: as §1

ibrutinib = compound: C=CC(=O)N1CCC[C@@H](n2nc(-c3ccc(Oc4ccccc4)cc3)c3c(N)ncnc32)C1 [ibrutinib]
Procedure, shortened: as §1

[5] = compound: CC(=O)c1cnc2ccc(-c3cc(Cl)c(O)c(Cl)c3)nc2c1N[C@H]1CC[C@H](CN(C)C)CC1
Procedure, shortened: as §1

ralimetinib = compound: CC(C)(C)Cn1c(N)nc2ccc(-c3[nH]c(C(C)(C)C)nc3-c3ccc(F)cc3)nc21 [ralimetinib]
Procedure, shortened: as §1

[6] = compound: CC(C)(O)CC(=O)NCCn1ccc2ncnc(Nc3ccc(Oc4cccc(C(F)(F)F)c4)c(Cl)c3)c21
Procedure, shortened: as §1

[7] = compound: CC1=C(C(CC(=O)N1)C2=CC=C(C=C2)C(F)(F)F)C(=O)NC3=C(C=C4C(=C3)C=NN4)F
Procedure, shortened: as §1

[8] = compound: CC1=C(C2=C(C=C1)C(=O)C3=CC=CC=C3N2CCCN)C
Procedure, shortened: as §1

[9] = compound: CC1=C(C=C(C=C1)NC(=O)C2=CC(=CC=C2)N(C)C)NC(=O)C3=CC=C(C=C3)O
Procedure, shortened: as §1

[10] = compound: CC1=CC=C(C=C1)SC2=C3C=C(SC3=CN=C2)C(=O)N
Procedure, shortened: as §1

erlotinib = compound: C#Cc1cccc(Nc2ncnc3cc(OCCOC)c(OCCOC)cc23)c1 [erlotinib]
Procedure, shortened: as §1

[11] = compound: C/C(=N\NC(=O)C1=CC(=CC=C1)S(=O)(=O)N2CCOCC2)/C3=C(C=CC(=C3)Cl)O
Procedure, shortened: as §1

[12] = compound: C1=CC(=CC=C1C2=NC3=C(N2)C=C(C=C3)C(=O)N)OC4=CC=C(C=C4)Cl
Procedure, shortened: as §1

[13] = compound: C1=CC2=C(C=CC(=C2)/C=C\3/C(=O)NC(=NCC4=CC=CS4)S3)N=C1
Procedure, shortened: as §1

[14] = compound: C1=CC=C2C(=C1)C3=NNC4=CC=CC(=C43)C2=O
Procedure, shortened: as §1

[15] = compound: CC(C)C1=C2N=C(C=C(N2N=C1)NCC3=CC=CC=C3)NCCCCCCN
Procedure, shortened: as §1

[16] = compound: CC1=C(C=C(C=C1)NC(=O)C2=CC(=CC=C2)C(C)(C)C#N)NC3=CC4=C(C=C3)N=CN(C4=O)C
Procedure, shortened: as §1

Measured: log2 fold change

ACAP3 (UniProt Q96P50)
inactive: [1] 0.082 | [2] -0.053 | [3] -0.045 | [4] 0.095 | IRAK-1-4 Inhibitor I -0.318 | ibrutinib -0.025 | [5] -0.005 | ralimetinib 0.101 | [6] -0.092 | [7] 0.064 | [8] -0.16 | [9] 0.002 | [10] -0.128

ACACA isoform 4 (UniProt Q13085)
inactive: erlotinib 0.024 | [11] 0.039 | [12] -0.029 | [13] -0.012 | [1] 0.011 | [2] 0.019 | [14] -0.047 | [3] 0.003 | [4] 0.024 | IRAK-1-4 Inhibitor I 0.005 | ibrutinib 0.038 | [5] 0.021 | ralimetinib 0.041 | [6] 0.013 | [15] 0.01 | [7] -0.027 | [8] -0.002 | [16] 0.021 | [9] 0.048 | [10] 0.035

ABHD15 (UniProt Q6UXT9)
inactive: erlotinib -0.039 | [11] -0.016 | [12] -0.05 | [13] -0.049 | [2] 0.003 | [14] 0.002 | [3] -0.007 | [4] 0.012 | IRAK-1-4 Inhibitor I -0.033 | [5] -0.005 | ralimetinib -0.005 | [6] -0.163 | [15] -0.006 | [9] 0.002 | [10] 0.004

ABHD4 (UniProt Q8TB40)
inactive: [11] 0.038 | [13] -0.025 | [14] 0.146 | [7] -0.015

ABCD4 (UniProt O14678)
inactive: erlotinib -0.476 | [12] 0.136 | [5] -0.083 | [15] 0.091 | [10] 0.063

ABHD3 (UniProt Q8WU67)
inactive: [2] 0.077 | IRAK-1-4 Inhibitor I -0.068 | ralimetinib -0.049 | [6] -0.164 | [9] 0.107

Two entries picked at random from those above, as already listed:
ABHD4 (UniProt Q8TB40)
inactive: [11] 0.038 | [13] -0.025 | [14] 0.146 | [7] -0.015

ACACA isoform 4 (UniProt Q13085)
inactive: erlotinib 0.024 | [11] 0.039 | [12] -0.029 | [13] -0.012 | [1] 0.011 | [2] 0.019 | [14] -0.047 | [3] 0.003 | [4] 0.024 | IRAK-1-4 Inhibitor I 0.005 | ibrutinib 0.038 | [5] 0.021 | ralimetinib 0.041 | [6] 0.013 | [15] 0.01 | [7] -0.027 | [8] -0.002 | [16] 0.021 | [9] 0.048 | [10] 0.035

(continued)

A2ML1 (UniProt A8K2U0)
inactive: erlotinib -0.067 | [12] -0.112 | [1] 0.379 | [2] 0.106 | IRAK-1-4 Inhibitor I -0.852 | ibrutinib -0.124 | [5] -0.018 | ralimetinib -0.256 | [6] 0.514 | [15] -0.034 | [16] 0.051 | [9] 0.099 | [10] 0.112

ABTB2 (UniProt Q8N961)
inactive: [1] 0.097 | [2] 0.228 | IRAK-1-4 Inhibitor I 0.224 | ibrutinib -0.056 | ralimetinib -0.016 | [6] -0.458 | [9] 0.018

ABCA7 (UniProt Q8IZY2)
inactive: [8] -0.011 | [16] 0.051

ACD (UniProt Q96AP0)
inactive: [2] 0.124 | IRAK-1-4 Inhibitor I 0.304 | ralimetinib -0.338 | [6] -0.009 | [16] -0.036 | [9] 0.053

ABHD18 (UniProt Q0P651)
inactive: erlotinib -0.118 | [12] -0.217 | [3] -0.019 | [4] -0.047 | [15] -0.19 | [7] 0.115

A0A494C100, A0A494C100
inactive: [11] 0.099 | [13] -0.178 | [1] -0.053 | [14] -0.015 | ibrutinib -0.079 | [8] -0.298

ACAT1, A0A5F9ZHJ0
inactive: [2] -0.128 | IRAK-1-4 Inhibitor I 0.075 | ralimetinib 0.034 | [6] -0.129 | [7] -0.106 | [9] 0.013

AASDH (UniProt Q4L235)
inactive: erlotinib 0.018 | [11] -0.047 | [12] -0.094 | [13] -0.008 | [1] 0.011 | [2] 0.019 | [14] 0.056 | [3] 0.12 | [4] 0.005 | IRAK-1-4 Inhibitor I 0.06 | ibrutinib -0.034 | [5] -0.109 | ralimetinib 0.039 | [6] -0.041 | [15] 0.351 | [7] -0.044 | [8] -0.016 | [9] -0.052 | [10] -0.027

ABCC5 (UniProt O15440)
inactive: erlotinib 0.059 | [11] -0.581 | [12] 0.057 | [13] -0.028 | [1] -0.127 | [2] -0.112 | [14] -0.248 | [3] -0.038 | [4] 0.072 | IRAK-1-4 Inhibitor I -0.067 | ibrutinib -0.109 | [5] 0.012 | ralimetinib -0.216 | [6] -0.145 | [15] -0.015 | [8] -0.094 | [16] 0.019 | [9] 0.187 | [10] -0.019

ABCC10 (UniProt Q5T3U5)
inactive: erlotinib -0.002 | [12] 0.084 | [2] -0.129 | IRAK-1-4 Inhibitor I -0.157 | ralimetinib 0.066 | [6] 0.006 | [15] -0.05 | [7] -0.074 | [8] -0.166 | [9] 0.052

ACE (UniProt P12821)
inactive: erlotinib -0.009 | [11] 0.027 | [12] -0.054 | [13] -0.092 | [14] -0.012 | [5] -0.014 | [15] 0.051 | [10] 0.016

ABCA3 (UniProt Q99758)
inactive: erlotinib -0.022 | [11] -0.028 | [12] -0.033 | [13] 0.036 | [1] -0.096 | [2] 0.037 | [14] 0.211 | [3] -0.118 | [4] 0 | IRAK-1-4 Inhibitor I 0.114 | ibrutinib -0.036 | [5] -0.002 | ralimetinib -0.041 | [6] -0.13 | [15] -0.023 | [8] -0.112 | [16] 0.062 | [9] -0.028 | [10] 0.128

AARS1 (UniProt H3BPK7)
inactive: [11] 0.147 | [13] -0.051 | [14] -0.049

Reference: the supplement of paper PMC10849652
